Data taken from ChEMBL document CHEMBL3988442, “University of Dundee, Small-Polar-MMV Screening Library” (2021).

The chains behind the UniProt entries cited, without tags or fusion partners. Residues count along the entry.
UniProt Q8IDJ8, 1-583: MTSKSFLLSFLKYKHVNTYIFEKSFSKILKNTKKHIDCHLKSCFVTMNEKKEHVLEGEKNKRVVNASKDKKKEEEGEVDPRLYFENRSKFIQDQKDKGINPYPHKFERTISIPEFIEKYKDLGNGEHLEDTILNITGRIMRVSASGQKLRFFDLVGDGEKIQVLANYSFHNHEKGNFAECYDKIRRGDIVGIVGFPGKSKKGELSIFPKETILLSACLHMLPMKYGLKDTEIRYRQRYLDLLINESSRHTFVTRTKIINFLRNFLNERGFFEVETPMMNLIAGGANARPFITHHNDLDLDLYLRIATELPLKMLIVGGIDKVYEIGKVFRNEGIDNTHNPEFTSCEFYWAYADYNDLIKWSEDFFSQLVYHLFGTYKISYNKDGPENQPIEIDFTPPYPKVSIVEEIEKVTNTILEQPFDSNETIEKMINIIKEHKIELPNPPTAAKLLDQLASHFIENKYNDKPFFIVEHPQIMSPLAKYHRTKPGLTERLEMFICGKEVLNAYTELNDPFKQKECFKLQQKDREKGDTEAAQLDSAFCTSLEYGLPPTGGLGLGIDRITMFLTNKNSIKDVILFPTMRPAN
UniProt Q4DA54, 1-478: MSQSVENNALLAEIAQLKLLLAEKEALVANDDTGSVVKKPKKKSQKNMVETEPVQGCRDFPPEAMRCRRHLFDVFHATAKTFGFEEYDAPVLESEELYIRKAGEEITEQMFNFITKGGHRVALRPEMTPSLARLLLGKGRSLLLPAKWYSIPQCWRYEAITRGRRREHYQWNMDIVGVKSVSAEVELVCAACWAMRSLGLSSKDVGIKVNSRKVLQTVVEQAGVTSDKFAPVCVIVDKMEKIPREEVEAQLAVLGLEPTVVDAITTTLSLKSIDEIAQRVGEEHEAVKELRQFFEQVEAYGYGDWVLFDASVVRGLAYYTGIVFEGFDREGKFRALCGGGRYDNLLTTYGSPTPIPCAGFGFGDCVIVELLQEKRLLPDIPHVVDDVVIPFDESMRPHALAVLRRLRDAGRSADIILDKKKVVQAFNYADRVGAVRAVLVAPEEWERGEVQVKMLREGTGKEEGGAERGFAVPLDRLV

A: 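Cell assay of Leishmania donovani living inside macrophages; the read-out is not stated. Compounds at 30 µM. Higher reads as stronger inhibition (inferred: compounds with an IC50 in retests scored well above the rest). Size under these conditions: about 69,000 compounds, about 1,000 of them at 50% or above in at least one test.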
B: 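Whole-parasite assay of Trypanosoma brucei over 72 hours; the read-out is not stated. Compounds at 30 µM. The record gives no direction; compounds that gave an IC50 in retests scored well above the rest, so higher reads as stronger inhibition. Values scatter widely below zero; nearly all retest evidence comes from the higher of the two concentrations used. Of about 64,000 compounds tested this way, about 940 (1.5%) reached 50% or more in at least one test.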
C: 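Assay of Toxoplasma gondii numbers, read through their beta-galactosidase reporter with a colour substrate. Compounds at 10 µM. The record gives no direction; the compounds picked for IC50 retests had high values, so higher reads as fewer parasites. About 67,000 compounds were tested under these conditions; 0.38% (about 260) showed 50% or more at least once.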
D: 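Lysine-tRNA ligase, Plasmodium falciparum 3D7 (UniProt Q8IDJ8). Enzyme assay of the cytosolic lysyl-tRNA synthetase in 384-well plates, read by luminescence. Tested at 30 µM. Direction is inferred from only a few compounds that gave an IC50; most scored high, so higher reads as stronger inhibition. About 69,000 compounds were tested under these conditions; 0.071% (about 49) showed 50% or more at least once.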
E: 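Histidine-tRNA ligase, Trypanosoma cruzi CL Brener (UniProt Q4DA54). Enzyme assay of histidyl-tRNA synthetase; the read-out is not stated. Tested at 30 µM. The record gives no direction; compounds that gave an IC50 in retests scored well above the rest, so higher reads as stronger inhibition. Size under these conditions: about 69,000 compounds, about 31 of them at 50% or above in at least one test.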

Results are given as percent effect.
How 0% and 100% were set is not recorded. Most values in the screen are low, and negative values occur.
This is an unselected part of the compounds tested.
Two or more numbers in one place are separate tests of the same structure; such repeats can differ widely.
A dash means the value is not listed here; it may have been measured.

{"structure": "Cc1oc(-c2ccco2)nc1CC(=O)N1CCN(CC(C)(C)O)CC1", "A": -11.29, "B": -21.18, "C": -5.375, "D": 3.357, "E": 0.3774}
{"structure": "O=C(O)C(F)(F)F.O=C(O)C(F)(F)F.[H][C@@]12CN(Cc3nccs3)CCC[C@]1(C(=O)OCC)CN(C(C)C)C2", "A": "17.63 & 8.651", "B": -79.71, "C": -6.998}
{"structure": "Cl.NC(=O)COc1ccc(CNCc2cc(F)ccc2F)cc1", "A": 36.43, "B": -48.54, "C": 31.03}
{"structure": "CCC(O)CN1CCN(C(=O)c2cccc(CC#N)c2)CC1", "stereo": "stereo not shown", "A": -6.569, "B": -8.615, "C": -0.2936, "D": -0.6046, "E": 4.611}
{"structure": "CCc1cnc(N2C[C@@H]3[C@@H](C(=O)NC(C)C)CCS(=O)(=O)[C@@H]3C2)nc1", "D": 2.305, "E": 6.557}
{"structure": "CC(Cc1ccc(Cl)cc1)N(C)C(=O)NCCS(C)(=O)=O", "stereo": "stereo not shown", "A": -4.766, "B": -38.74, "C": 3.024, "D": -0.8027, "E": 3.982}
{"structure": "Cc1cc(=O)[nH]c(SC(C)C(=O)N2CCCN(C3CCCC3)CC2)n1", "stereo": "stereo not shown", "A": 14.65, "B": -42.23, "C": -33.73, "D": -2.23, "E": 5.464}
{"structure": "O=C(O)C(F)(F)F.[H][C@@]12CCN(S(=O)(=O)c3ccccc3)CC[C@]1(C(=O)N(C)C)CCN2CC", "A": 12.5, "B": -16.78, "C": -4.793}
{"structure": "Cl.O=C(c1cc2c(s1)CCCC2)N1CCc2nc(C3CCCN3)ncc2C1", "stereo": "stereo not shown", "A": "14.98 & 11.86", "B": 6.632, "C": -40.83}
{"structure": "CCNC(=O)[C@@H]1CCCN1[C@@H](C(=O)NC)C1CC1.Cl", "A": -16.02, "B": -24.24, "C": -0.2831}
{"structure": "Cc1nc(CN(C)C2CCN(CC(=O)NC3CCOCC3)C2)no1", "stereo": "stereo not shown", "A": -6.405, "B": -27.73, "C": -0.6462, "D": 1.893, "E": -1.149}
{"structure": "O=C(COc1cccc(Cl)c1)N1CCOCC(O)(CN2CCCC2)C1", "stereo": "stereo not shown", "A": 30.31, "B": -90.48, "C": -13.44, "D": 8.776, "E": 4.464}
{"structure": "[H][C@@]12CCN(c3ncccn3)C[C@]1([H])O[C@@H](C(=O)NCCOC)C2", "A": -3.642, "B": -25.83, "C": 15.22}
{"structure": "Cc1nnc([C@]23COC[C@H]2CN(Cc2cccs2)C3)o1", "D": -0.3389, "E": 1.227}
{"structure": "[H][C@]12CN(CC3CC3)C(=O)[C@@]1([H])CN(c1ncccn1)C2", "A": 38.34, "B": -23.15, "C": -4.858}
{"structure": "Cc1noc(C)c1C(=O)N1C[C@@H]2CCCO[C@@H]2[C@H](N(C)C)C1", "D": -0.01087, "E": 2.151}
{"structure": "OCC1CCCN1c1cc(NCc2cccnc2)ncn1", "stereo": "stereo not shown", "A": 3.486, "B": 4.309, "C": -30.49, "D": 0.05624, "E": 2.305}
{"structure": "COc1ccc(-c2nc(CNCCn3cccn3)cs2)cc1", "A": 2.794, "B": -15.13, "C": 3.479, "D": 4.795, "E": 8.333}
{"structure": "Cc1nc(N2C[C@H]3CC[C@@H](C2)N3)nc2cc(S(C)(=O)=O)ccc12", "D": 2.056, "E": 5.464}
{"structure": "[H][C@@]12CCCO[C@]1([H])[C@@H](OC)CN2C(=O)c1ccc(C)o1", "A": 23.82, "B": -77.77, "C": -5.521}
{"structure": "CCC1=N[C@@]2(CC[C@@H]3CN(S(=O)(=O)CC(C)C)C[C@@H]32)C(=O)N1CC", "D": -2.771, "E": 6.452}
{"structure": "CC1=Nc2c(c(=O)[nH]n2C(C)C)C(c2ccc3nccnc3c2)S1", "stereo": "stereo not shown", "A": -4.732, "B": -29.03, "C": -5.066, "D": 3.564, "E": 9.942}

Some entries from above, unchanged:

structure,A,B,C,D,E
Cc1noc(C)c1C(=O)N1C[C@@H]2CCCO[C@@H]2[C@H](N(C)C)C1,-,-,-,-0.01087%,2.151%
Cl.O=C(c1cc2c(s1)CCCC2)N1CCc2nc(C3CCCN3)ncc2C1 (stereo not shown),14.98% & 11.86%,6.632%,-40.83%,-,-
O=C(COc1cccc(Cl)c1)N1CCOCC(O)(CN2CCCC2)C1 (stereo not shown),30.31%,-90.48%,-13.44%,8.776%,4.464%